Experimental data as given in the supplement of paper PMC10849652.
The list shows a part of the results.

Amino acid sequences for entries named in this document (tags omitted). A change or cut given only in a name is not applied to a line headed by its entry.
UniProt Q96DA0: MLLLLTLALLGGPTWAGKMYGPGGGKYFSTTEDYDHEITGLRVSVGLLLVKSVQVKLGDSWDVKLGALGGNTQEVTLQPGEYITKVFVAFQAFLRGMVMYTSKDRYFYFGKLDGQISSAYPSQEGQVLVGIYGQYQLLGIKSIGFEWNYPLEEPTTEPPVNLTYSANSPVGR
UniProt Q9ULC8: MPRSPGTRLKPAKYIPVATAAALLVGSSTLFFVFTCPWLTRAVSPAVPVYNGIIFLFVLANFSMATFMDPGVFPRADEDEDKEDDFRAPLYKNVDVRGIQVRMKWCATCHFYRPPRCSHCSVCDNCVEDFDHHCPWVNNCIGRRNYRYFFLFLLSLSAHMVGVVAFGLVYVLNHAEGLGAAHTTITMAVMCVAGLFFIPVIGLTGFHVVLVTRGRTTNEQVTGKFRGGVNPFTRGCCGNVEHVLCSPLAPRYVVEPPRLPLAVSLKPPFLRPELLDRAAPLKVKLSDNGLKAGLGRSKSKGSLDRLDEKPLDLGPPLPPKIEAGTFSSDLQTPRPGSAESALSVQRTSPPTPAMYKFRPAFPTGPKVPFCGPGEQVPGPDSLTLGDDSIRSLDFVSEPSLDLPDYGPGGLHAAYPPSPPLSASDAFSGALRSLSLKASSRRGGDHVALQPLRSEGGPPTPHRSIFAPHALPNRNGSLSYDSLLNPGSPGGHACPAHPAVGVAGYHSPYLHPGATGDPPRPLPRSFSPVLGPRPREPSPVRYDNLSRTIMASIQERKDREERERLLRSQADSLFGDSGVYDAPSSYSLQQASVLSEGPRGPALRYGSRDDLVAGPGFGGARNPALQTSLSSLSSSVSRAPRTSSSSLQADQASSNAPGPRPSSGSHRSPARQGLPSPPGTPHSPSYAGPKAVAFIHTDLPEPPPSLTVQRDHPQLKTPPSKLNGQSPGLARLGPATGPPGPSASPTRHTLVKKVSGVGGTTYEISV
UniProt P17010: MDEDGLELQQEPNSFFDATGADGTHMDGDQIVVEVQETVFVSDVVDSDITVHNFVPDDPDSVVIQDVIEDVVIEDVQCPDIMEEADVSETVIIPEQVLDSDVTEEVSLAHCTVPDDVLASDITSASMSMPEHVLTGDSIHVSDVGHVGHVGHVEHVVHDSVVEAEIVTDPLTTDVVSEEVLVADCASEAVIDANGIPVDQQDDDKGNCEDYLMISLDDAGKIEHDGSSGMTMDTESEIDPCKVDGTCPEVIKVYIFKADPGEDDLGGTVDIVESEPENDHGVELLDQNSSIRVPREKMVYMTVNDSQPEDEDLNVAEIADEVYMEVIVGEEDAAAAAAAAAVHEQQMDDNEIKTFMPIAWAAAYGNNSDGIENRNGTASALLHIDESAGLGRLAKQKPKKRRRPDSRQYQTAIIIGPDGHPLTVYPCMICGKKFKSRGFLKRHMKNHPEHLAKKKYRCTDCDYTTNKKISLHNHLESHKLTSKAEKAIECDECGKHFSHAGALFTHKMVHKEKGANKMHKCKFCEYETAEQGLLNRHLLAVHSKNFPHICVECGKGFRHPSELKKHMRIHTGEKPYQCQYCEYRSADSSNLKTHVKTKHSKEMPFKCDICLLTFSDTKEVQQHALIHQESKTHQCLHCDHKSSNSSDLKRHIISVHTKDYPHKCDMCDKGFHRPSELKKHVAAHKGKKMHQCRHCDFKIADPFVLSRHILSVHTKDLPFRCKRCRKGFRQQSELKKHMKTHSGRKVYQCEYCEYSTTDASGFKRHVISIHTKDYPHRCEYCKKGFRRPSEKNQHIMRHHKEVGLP
UniProt Q5D1E8: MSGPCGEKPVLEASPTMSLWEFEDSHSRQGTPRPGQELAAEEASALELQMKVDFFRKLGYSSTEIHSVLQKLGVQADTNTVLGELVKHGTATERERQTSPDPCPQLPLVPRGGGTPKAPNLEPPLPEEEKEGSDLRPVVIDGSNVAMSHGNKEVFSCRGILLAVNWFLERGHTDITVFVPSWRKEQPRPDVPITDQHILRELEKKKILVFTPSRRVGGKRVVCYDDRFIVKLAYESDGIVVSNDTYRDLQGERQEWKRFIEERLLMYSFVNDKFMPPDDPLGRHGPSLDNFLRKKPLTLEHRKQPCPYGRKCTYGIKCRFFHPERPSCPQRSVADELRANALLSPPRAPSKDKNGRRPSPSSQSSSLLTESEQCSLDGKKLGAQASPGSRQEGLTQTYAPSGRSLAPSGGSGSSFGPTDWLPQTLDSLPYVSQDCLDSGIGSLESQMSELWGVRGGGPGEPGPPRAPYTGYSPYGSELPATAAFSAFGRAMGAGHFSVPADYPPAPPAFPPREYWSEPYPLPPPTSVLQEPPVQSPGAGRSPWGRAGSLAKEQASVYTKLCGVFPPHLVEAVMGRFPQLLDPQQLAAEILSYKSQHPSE
UniProt C9J5V9: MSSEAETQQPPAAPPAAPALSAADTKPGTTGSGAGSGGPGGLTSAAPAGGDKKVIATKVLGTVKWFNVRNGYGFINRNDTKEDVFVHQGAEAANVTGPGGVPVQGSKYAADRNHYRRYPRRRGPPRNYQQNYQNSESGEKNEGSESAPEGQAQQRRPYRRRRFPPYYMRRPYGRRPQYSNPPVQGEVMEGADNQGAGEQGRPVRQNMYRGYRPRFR
UniProt Q8TBK6: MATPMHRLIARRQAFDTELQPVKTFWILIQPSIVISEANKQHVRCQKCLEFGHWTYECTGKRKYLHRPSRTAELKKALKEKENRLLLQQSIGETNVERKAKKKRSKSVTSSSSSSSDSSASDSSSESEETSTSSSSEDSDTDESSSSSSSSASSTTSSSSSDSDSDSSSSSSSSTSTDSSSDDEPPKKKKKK
UniProt Q86UP3: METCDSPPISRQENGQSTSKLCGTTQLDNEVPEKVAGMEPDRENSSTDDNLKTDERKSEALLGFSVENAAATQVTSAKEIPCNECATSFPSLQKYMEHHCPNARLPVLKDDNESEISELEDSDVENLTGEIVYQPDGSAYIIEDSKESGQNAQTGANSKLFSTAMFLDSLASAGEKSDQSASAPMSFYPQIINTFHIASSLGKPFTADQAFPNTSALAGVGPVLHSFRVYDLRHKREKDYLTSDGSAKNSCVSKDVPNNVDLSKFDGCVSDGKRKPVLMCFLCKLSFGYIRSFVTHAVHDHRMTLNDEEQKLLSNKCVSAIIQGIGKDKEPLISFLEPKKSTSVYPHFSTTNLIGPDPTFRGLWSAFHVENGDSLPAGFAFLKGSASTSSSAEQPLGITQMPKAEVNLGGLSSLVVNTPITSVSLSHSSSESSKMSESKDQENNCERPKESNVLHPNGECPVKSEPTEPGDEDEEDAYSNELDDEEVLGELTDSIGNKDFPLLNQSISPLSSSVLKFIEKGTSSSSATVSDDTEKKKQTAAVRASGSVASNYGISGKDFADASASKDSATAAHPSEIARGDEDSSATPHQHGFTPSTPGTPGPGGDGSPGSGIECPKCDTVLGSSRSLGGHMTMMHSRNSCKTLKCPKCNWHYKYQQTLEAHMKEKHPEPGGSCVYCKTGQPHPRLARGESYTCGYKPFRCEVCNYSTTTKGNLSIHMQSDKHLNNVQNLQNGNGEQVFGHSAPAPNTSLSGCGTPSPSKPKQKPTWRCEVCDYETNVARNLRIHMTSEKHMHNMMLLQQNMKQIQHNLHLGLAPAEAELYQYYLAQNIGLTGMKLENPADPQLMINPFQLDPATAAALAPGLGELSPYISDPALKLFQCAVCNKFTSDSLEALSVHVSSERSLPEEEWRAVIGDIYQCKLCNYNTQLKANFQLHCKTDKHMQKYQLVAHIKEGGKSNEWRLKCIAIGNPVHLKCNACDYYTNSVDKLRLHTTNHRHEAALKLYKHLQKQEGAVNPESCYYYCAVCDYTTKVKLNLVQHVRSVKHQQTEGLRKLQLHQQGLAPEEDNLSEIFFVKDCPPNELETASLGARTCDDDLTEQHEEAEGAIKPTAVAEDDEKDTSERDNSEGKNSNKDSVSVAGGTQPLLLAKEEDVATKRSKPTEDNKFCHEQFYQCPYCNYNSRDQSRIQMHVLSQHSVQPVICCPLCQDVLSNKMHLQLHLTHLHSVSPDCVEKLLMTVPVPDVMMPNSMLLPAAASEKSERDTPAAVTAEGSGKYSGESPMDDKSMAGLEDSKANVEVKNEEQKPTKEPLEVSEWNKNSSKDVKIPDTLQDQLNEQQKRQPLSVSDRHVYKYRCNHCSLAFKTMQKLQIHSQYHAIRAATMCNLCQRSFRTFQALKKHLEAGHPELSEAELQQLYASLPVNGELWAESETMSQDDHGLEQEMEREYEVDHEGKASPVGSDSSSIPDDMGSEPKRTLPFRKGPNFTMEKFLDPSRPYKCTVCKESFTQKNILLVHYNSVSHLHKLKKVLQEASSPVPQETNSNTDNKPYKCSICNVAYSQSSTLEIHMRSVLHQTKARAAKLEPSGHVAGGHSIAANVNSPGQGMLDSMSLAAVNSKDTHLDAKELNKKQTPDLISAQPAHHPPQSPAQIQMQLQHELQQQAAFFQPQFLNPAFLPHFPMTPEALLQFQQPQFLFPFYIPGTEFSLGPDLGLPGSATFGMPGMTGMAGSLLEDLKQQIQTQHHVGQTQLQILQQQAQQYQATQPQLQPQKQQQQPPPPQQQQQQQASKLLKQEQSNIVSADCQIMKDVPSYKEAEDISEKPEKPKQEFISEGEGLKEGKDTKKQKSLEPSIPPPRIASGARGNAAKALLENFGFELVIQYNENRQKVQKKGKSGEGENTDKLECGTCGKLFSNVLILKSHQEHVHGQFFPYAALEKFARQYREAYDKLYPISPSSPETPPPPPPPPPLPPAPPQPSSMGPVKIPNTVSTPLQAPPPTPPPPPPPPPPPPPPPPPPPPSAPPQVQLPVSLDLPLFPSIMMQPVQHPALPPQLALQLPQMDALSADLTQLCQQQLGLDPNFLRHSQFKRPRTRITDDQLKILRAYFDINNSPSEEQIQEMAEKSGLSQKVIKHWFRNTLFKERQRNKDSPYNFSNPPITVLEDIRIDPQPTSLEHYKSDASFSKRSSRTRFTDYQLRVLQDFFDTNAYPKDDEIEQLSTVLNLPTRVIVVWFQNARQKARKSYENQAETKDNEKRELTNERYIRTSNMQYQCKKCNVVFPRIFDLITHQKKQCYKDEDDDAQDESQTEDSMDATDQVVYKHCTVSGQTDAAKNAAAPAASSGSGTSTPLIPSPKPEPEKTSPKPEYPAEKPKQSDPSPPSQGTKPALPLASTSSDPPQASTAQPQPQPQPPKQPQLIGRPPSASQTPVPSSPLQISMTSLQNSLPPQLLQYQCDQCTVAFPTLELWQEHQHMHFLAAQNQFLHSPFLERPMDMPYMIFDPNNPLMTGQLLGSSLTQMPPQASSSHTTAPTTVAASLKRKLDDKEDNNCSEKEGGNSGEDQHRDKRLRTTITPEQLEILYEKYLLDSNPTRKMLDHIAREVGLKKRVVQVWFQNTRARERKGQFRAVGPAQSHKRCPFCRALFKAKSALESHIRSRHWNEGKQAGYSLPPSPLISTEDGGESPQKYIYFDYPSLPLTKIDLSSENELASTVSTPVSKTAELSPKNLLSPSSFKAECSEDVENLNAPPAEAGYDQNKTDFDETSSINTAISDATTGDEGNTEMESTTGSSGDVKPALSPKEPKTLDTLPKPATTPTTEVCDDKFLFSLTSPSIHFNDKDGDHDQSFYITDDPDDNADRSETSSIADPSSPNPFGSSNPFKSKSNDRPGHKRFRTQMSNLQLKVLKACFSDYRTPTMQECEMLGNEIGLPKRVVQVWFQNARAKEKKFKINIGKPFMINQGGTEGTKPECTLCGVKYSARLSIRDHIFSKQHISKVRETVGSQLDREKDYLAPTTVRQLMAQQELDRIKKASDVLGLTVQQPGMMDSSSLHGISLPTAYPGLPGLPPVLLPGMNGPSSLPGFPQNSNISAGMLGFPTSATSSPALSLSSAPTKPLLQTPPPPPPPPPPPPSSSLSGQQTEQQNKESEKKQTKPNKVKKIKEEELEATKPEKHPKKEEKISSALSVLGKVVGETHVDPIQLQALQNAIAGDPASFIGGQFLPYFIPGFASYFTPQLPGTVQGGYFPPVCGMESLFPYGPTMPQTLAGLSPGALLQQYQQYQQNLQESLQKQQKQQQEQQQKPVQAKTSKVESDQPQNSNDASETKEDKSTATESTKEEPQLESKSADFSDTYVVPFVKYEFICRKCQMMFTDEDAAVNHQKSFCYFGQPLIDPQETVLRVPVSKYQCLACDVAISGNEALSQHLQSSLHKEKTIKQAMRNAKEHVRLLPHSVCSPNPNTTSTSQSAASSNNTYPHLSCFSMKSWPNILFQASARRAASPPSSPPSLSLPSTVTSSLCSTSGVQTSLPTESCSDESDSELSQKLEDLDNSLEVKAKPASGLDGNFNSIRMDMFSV
UniProt O43543: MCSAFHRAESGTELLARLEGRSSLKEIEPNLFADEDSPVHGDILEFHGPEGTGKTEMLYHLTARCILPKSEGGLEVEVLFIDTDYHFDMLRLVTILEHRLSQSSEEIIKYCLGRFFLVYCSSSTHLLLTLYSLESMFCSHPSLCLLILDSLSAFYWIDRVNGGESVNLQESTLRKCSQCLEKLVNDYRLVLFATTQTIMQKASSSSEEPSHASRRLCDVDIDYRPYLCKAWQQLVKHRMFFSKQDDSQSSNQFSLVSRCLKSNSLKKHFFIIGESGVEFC

Experiments:
Assay in all cases: log2 fold change, soluble protein after heating vs DMSO (PISA); higher = thermal stabilisation; K562 lysate, 10 uM; active = over 0.2 and 3.5 SD of the protein, either way, in both replicates (recomputed)
[1] = compound: CCCS(=O)(=O)Nc1ccc(F)c(C(=O)c2c[nH]c3ncc(Cl)cc23)c1F
How it was run: (§1)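 Thermal stability, expressed as log-two fold change relative to solvent controls, is given from duplicates. Crude K562 extract in PBS pH 7.4 with 1 mM MgCl2, at 1 mg/mL protein, was treated with 10 μM compound for 30 min and heated in aliquots for 3 min across 48°C-58°C. After pooling, adjustment to 0.5% NP-40 at 4°C and centrifugation at 21,000xg for 90 min, supernatant protein was measured by TMTpro 16plex LC-MS/MS with channel sums equalised.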

[2] = compound: CCN(CCCOc1ccc2c(Nc3cc(CC(=O)Nc4cccc(F)c4)[nH]n3)ncnc2c1)CCOP(=O)(O)O [barasertib]
How it was run: as §1

[3] = compound: CC[C@@H]1C(=O)N(C)c2cnc(Nc3ccc(C(=O)NC4CCN(C)CC4)cc3OC)nc2N1C1CCCC1
How it was run: as §1

[4] = compound: CC[C@@H]1C(=O)N(C)c2cnc(Nc3ccc(C(=O)N[C@H]4CC[C@H](N5CCN(CC6CC6)CC5)CC4)cc3OC)nc2N1C(C)C [volasertib]
How it was run: as §1

[5] = compound: CCn1c(C(=O)N(C2CC2)C2CC2)cc2c3c(ncn3C)c(Nc3cc(C)n(C)n3)nc21
How it was run: as §1

[6] = compound: CCn1cc(-c2ccnc3[nH]c(-c4cccc(CN(C)C)c4)cc23)c(-c2ccc(NC(=O)N(C)C)cc2)n1
How it was run: as §1

[7] = compound: CN1CCC(CNc2ccc3ncc(-c4cccc(OC(F)(F)F)c4)n3n2)CC1
How it was run: as §1

[8] = compound: CN1CCN(c2nc(C3=C(c4c[nH]c5ccccc45)C(=O)NC3=O)c3ccccc3n2)CC1 [sotrastaurin]
How it was run: as §1

[9] = compound: CCCS(=O)(=O)Nc1ccc(F)c(C(=O)c2c[nH]c3ncc(-c4ccc(Cl)cc4)cc23)c1F [vemurafenib]
How it was run: as §1

[10] = compound: CN1CCN(CCOc2cc(OC3CCOCC3)c3c(Nc4c(Cl)ccc5c4OCO5)ncnc3c2)CC1 [saracatinib]
How it was run: as §1

Measured: log2 fold change

YWHAZ (UniProt E7EX29)
inactive: [1] -0.178 | [2] 0.148 | [3] -0.102 | [4] -0.027

ZG16B (UniProt Q96DA0)
inactive: [1] -0.313 | [2] -0.263 | [3] 0.088 | [4] -0.282 | [5] 0.372 | [6] 0.539 | [7] -0.322 | [8] -0.029

ZFP36L2 (UniProt P47974)
inactive: [9] 0.025 | [2] 0.086 | [3] 0.03 | [5] 0.173 | [6] 0 | [7] -0.098 | [10] -0.01 | [8] -0.006

ZDHHC14 (UniProt Q8IZN3)
inactive: [9] 0.102 | [1] 0.033 | [3] 0.024 | [4] 0.012 | [5] -0.075 | [6] 0.009 | [7] 0.037 | [10] 0.01 | [8] -0.068

Reprinted from above (two entries):
YWHAZ (UniProt E7EX29)
inactive: [1] -0.178 | [2] 0.148 | [3] -0.102 | [4] -0.027

ZG16B (UniProt Q96DA0)
inactive: [1] -0.313 | [2] -0.263 | [3] 0.088 | [4] -0.282 | [5] 0.372 | [6] 0.539 | [7] -0.322 | [8] -0.029

Further results:

ZDHHC17 (UniProt Q8IUH5)
inactive: [9] 0.058 | [1] 0.047 | [3] 0.077 | [4] -0.071 | [5] 0.166 | [6] -0.346 | [7] 0.141 | [10] 0.205 | [8] 0.117

ZFPM2 (UniProt Q8WW38)
inactive: [9] -0.06 | [2] -0.334 | [3] -0.111 | [6] -0.024 | [7] -0.004 | [10] 0.102 | [8] 0.095

ZDHHC13 (UniProt Q8IUH4)
inactive: [9] 0.172 | [2] 0.06 | [6] 0.071 | [7] -0.22 | [10] 0.255

ZFYVE1 (UniProt Q9HBF4)
inactive: [1] -0.012 | [2] 0.018 | [4] 0.051 | [5] -0.022 | [6] -0.011 | [7] -0.158 | [10] -0.016 | [8] 0.16

ZBTB7B isoform 2 (UniProt O15156)
inactive: [2] -0.157 | [10] -0.099 | [8] 0.015

YIPF1 (UniProt Q9Y548)
inactive: [1] -0.028 | [2] -0.06 | [4] -0.039 | [10] -0.002 | [8] 0.004

ZBTB44 (UniProt Q8NCP5)
inactive: [8] 0.182

ZBED5 (UniProt Q49AG3)
inactive: [10] -0.029

YBX2 (UniProt Q9Y2T7)
inactive: [2] 0.001

ZBTB39 (UniProt O15060)
inactive: [5] -0.021 | [10] -0.138

ZC3H14 isoform 11 (UniProt Q6PJT7)
inactive: [8] 0.177

ZBED6 (UniProt P86452)
inactive: [1] 0.12 | [4] 0.045 | [5] -0.188 | [10] -0.009

ZDHHC8 isoform 3 (UniProt Q9ULC8)
inactive: [6] -0.187 | [7] 0.111

ZBTB17 isoform 2 (UniProt Q13105)
inactive: [1] -0.029 | [2] 0.011 | [4] 0.035 | [10] 0.066 | [8] -0.144

ZFAT (UniProt Q9P243)
inactive: [3] -0.046

YY1AP1 isoform 9 (UniProt Q9H869)
inactive: [3] -0.242 | [5] 0.044 | [6] 0.337 | [7] -0.112 | [10] -0.28 | [8] 0.018

ZFX isoform 3 (UniProt P17010)
inactive: [1] -0.139 | [4] 0.055 | [5] 0.055 | [10] 0.03 | [8] 0.01

ZBTB34 (UniProt Q8NCN2)
inactive: [1] 0.106 | [2] 0.358 | [4] -0.006 | [5] 0.111 | [10] -0.063

ZC3H12A (UniProt Q5D1E8)
inactive: [3] 0.143 | [5] -0.003 | [10] 0.156 | [8] 0.009

YBX1 (UniProt C9J5V9)
inactive: [6] -0.092 | [7] 0.059 | [8] -0.043

ZDHHC9 (UniProt Q9Y397)
inactive: [5] -0.081 | [6] -0.055 | [7] -0.125 | [8] 0.035

ZCCHC10 (UniProt Q8TBK6)
inactive: [2] -0.056 | [3] -0.363 | [5] 0.099 | [10] -0.078 | [8] 0.03

ZC4H2 (UniProt Q9NQZ6)
inactive: [8] -0.42

ZC3H10 (UniProt Q96K80)
inactive: [2] 0.012 | [10] -0.011 | [8] -0.048

YIPF2 (UniProt Q9BWQ6)
inactive: [5] 0.02 | [6] -0.071 | [7] -0.069 | [8] -0.004

ZCRB1 (UniProt Q8TBF4)
inactive: [1] -0.002 | [4] 0.01 | [5] -0.006 | [6] -0.072 | [7] 0.011 | [10] 0.092 | [8] 0.01

ZBTB14 (UniProt O43829)
inactive: [1] 0.084 | [2] -0.041 | [4] 0.064 | [5] -0.038 | [6] -0.131 | [7] 0.056 | [10] 0.057 | [8] -0.131

ZBTB37 (UniProt Q5TC79)
inactive: [5] 0.051 | [8] 0.167

ZFHX4 isoform 5 (UniProt Q86UP3)
inactive: [1] 0.157 | [2] 0.084 | [4] 0.143 | [5] 0.118 | [8] -0.009

ZCCHC7 (UniProt Q8N3Z6)
inactive: [10] -0.055 | [8] 0.095

ZFAND1 (UniProt Q8TCF1)
inactive: [2] -0.309 | [3] 0.063 | [5] -0.021 | [6] 0.417 | [7] -0.293 | [10] -0.018 | [8] -0.038

ZDHHC12 isoform 3 (UniProt Q96GR4)
inactive: [8] 0.039

XPOT (UniProt F5GYW6)
inactive: [1] -0.204 | [4] -0.112

XRCC5 (UniProt C9JZ81)
inactive: [1] 0.009 | [4] -0.035

ZDHHC2 (UniProt Q9UIJ5)
inactive: [1] 0.009 | [3] -0.392 | [4] 0.009 | [5] 0.041 | [6] 0.026 | [7] -0.032 | [8] -0.094

ZC3H3 (UniProt Q8IXZ2)
inactive: [1] -0.221 | [4] 0.062 | [6] 0.117 | [7] -0.152

XRCC2 (UniProt O43543)
inactive: [2] -0.014 | [6] -0.091 | [7] -0.079 | [10] 0.014 | [8] -0.049
